Laboratory results published in US6608080B1, “Morphan derivatives or salts thereof and medicinal compositions containing the same” (Hisamitsu Pharmaceutical Co., Ltd., priority 1999, dated 2003).
At least one structure is not confirmed: it was looked up by name or label, or the drawing left a doubt.

System: glycine receptors
Assay: ionic current induced by glycine in a single neuron of the tractus solitarius nucleus, whole cell patch clamp
Assay type: cell-based, guinea pig
Conditions: classification; 1 mM, example 7 at 300 μM
Experimental: In order to confirm the excellent actions of the derivatives described in the present invention on modification of glycine receptors, the actions of various morphan derivatives against ionic current induced by glycine were evaluated in a single neuron of the tractus solitarius nucleus of a guinea pig.
The isolation of a single neuron was performed according to the method described in Kay et al. (J. Neurosci. Meth., 16, 227-238, 1986). Guinea pigs, Hartley strain, 7-10 days of age, were anesthetized, bled and decapitated and the medullae were rapidly extracted. Sliced sections, thickness 400 μm, were prepared by using a microslicer. The sliced segments obtained were incubated at 37° C. for 30 minutes, and regions of the tractus solitarius nucleus were punched out under a stereoscope. The punched out specimens were trypsinized in a 100% oxygen atmosphere at 37° C. for 30-60 minutes. The trypsinized tissues were dispersed mechanically to obtain the single neurons. Measurements of the ionic currents activated by glycine were performed using the whole cell mode of the patch clamp method. The ionic currents obtained were recorded using a pen-recorder. Administration of the test compounds was performed by the Y-tube method in which the external fluid peripheral to the cells could be changed to the test drug solution within 2 msec. (Neurosci. Lett., 103, 56-63, 1989). […]

C=CCC12CCCC(CCN1Cc1ccccc1O)C2 (stereo not shown) [Example 7, 2-{[1-Allyl-(2-propenyl)-2-azabicyclo[3.3.1]nonane-2-yl]methyl}phenol]
type of effect on glycine-induced ionic currents (in words): inhibitory action
